In PubChem BioAssay AID1347076 (National Center for Advancing Translational Sciences (NCATS), 2019):
In all, about 400,000 compounds went through this assay and about 13,000 (3.2%) were called active. The shares of active, inactive and inconclusive entries below differ from those in the screen. The call rests on the fitted dose curve; in most records, active means well fitted cell-killing curve with a large enough effect; inconclusive means small, poorly fitted or top-dose-only effect, or effect the other way; inactive means flat fitted curve, though single readings scatter. A potency beside an inconclusive call is a rough fit, not a confirmed value.

Assay: qHTS assay for MDR1-selective chemotherapeutics: Primary screen using the drug-selected MDR subline cells KB-V1; further: nearly all actives have a fitted effect of over 60% in size
Details: KB-V1 MDR cells viability, CellTiter-Glo, 72 h; activity change, negative = cytotoxicity: at 46.1 µM (top of the series)
In short: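 Cytotoxicity via CellTiter-Glo luminescence after 72 h compound exposure at 37 degrees C. Cells: drug-selected KB-V1 line, DMEM phenol-red free plus 10% FBS. Compounds tested at multiple concentrations; normalized data fitted to concentration-effect curves.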
On the % scale 0 is the no-effect control and ±100 the full control effect; potency means the concentration at half of the fitted maximal effect.

Compound	Potency	activity change, negative = cytotoxicity
CC(=O)c1cccc(NC(=O)c2ccc(NS(C)(=O)=O)cc2)c1	inconclusive: 29.1 µM [rising, single point]	
Cc1ccc(NC(=O)C(NC2CCCc3ccccc32)c2ccccc2)c([N+](=O)[O-])c1 (configuration not stated)	inconclusive: 6.51 µM [cytotoxic, partial curve]	
CC(NC(=O)NC1CCCCC1)c1ccccc1 (configuration not stated)	inconclusive: 8.2 µM [cytotoxic, partial curve, poor fit]	
COc1ccc(-c2cn(Cc3ccc([N+](=O)[O-])cc3)nn2)cc1	inconclusive: 9.2 µM [cytotoxic, partial curve]	
Cc1ccccc1-c1cccc([C@@H]2C[C@H]3CN(Cc4cccnc4)C(=O)[C@]34CCCN24)c1	inconclusive: 16.4 µM [cytotoxic, single point]	
CC(=O)c1c(NCCc2ccccc2)cc(C)oc1=O	inconclusive: 14.6 µM [cytotoxic, partial curve, poor fit]	
COc1ccc(NC(=O)CS(=O)CC(=O)Nc2cc(Cl)ccc2OC)cc1 (configuration not stated)	active: 20.6 µM	
O=C(NCCCCCCNC(=O)c1ccncc1)c1ccncc1	inconclusive: 8.2 µM [rising, partial curve, poor fit]	
Cc1ccc(C)c(NC(=O)CSc2nncn2C)c1		inconclusive: -34.7% [cytotoxic]
COc1ccc(CCNC(=O)CSc2nn(-c3ccccc3)c(=S)s2)cc1OC	inconclusive: 20.6 µM [cytotoxic, single point]	
Cc1ccc(OCCCC(=O)Nc2sc3c(c2C(N)=O)CCCC3)cc1		inactive: -4.37%
O=C1[C@H]2[C@H](C=CC[C@H]2C(=O)N2CCN(c3ccccc3)CC2)CCN1Cc1ccccc1	inconclusive: 8.2 µM [cytotoxic, partial curve]	
CCOc1cc(/C=N/NC(=O)Cn2nc([N+](=O)[O-])cc2C)cc(Br)c1OCc1ccccc1F	inconclusive: 6.51 µM [cytotoxic, full curve]	
Fc1ccccc1N1CCN(c2c3c(nc4nncn24)CCC3)CC1	inconclusive: 2.06 µM [cytotoxic, full curve]	
CC(=O)NC(Cc1ccc(F)cc1)C(=O)NC1CCN(c2ncccc2[N+](=O)[O-])CC1 (configuration not stated)		inactive: 0%
CC(=O)NCCn1c(SCC(=O)NCCc2ccc(S(N)(=O)=O)cc2)nc2ccccc2c1=O	inconclusive: 1.3 µM [rising, partial curve, poor fit]	
CC(=O)c1ccc(N2CCN(S(=O)(=O)c3ccc4[nH]c5c(c4c3)CCCCC5)CC2)cc1	inconclusive: 6.51 µM [cytotoxic, partial curve]	
CC(C)CN(C(=O)CSc1nnc2ccccn12)c1c(N)n(CC(C)C)c(=O)[nH]c1=O	inconclusive: 20.6 µM [rising, single point]	
CC(=O)N1c2ccccc2C(=O)C1N1CCN(c2cc(Cl)ccc2C)CC1 (configuration not stated)		inactive: 1.75%
Cc1nc2ccc(C(=O)Nc3cccc([N+](=O)[O-])c3)cc2s1		inactive: -3.65%
CNc1oc(-c2ccc(Cl)cc2)nc1P(=O)(c1ccccc1)c1ccccc1	inconclusive: 29.1 µM [cytotoxic, single point]	
CC(C)CC(=O)N=C1SC2CS(=O)(=O)CC2N1CCc1ccccc1 (configuration not stated)	active: 13 µM	
Cn1c(NCc2ccccc2)nc2cc(-c3cccc(C(F)(F)F)c3)sc2c1=O	inconclusive: 29.1 µM [cytotoxic, single point]	

Compound	Potency	activity change, negative = cytotoxicity
COc1ccc(C(=O)N/C(N)=N/c2nc3ccccc3o2)cc1	inconclusive: 29.1 µM [cytotoxic, single point]	
O=C(COc1ccc(S(=O)(=O)N2CCOCC2)cc1)Nc1ccc(Cl)c(C(F)(F)F)c1	inconclusive: 16.4 µM [cytotoxic, single point]	
O=C(CCn1c(=O)[nH]c2ccsc2c1=O)N1CCN(c2ccc([N+](=O)[O-])cc2)CC1		inactive: 7.29%
Cc1ccc(NC(=O)c2ccc(CNS(=O)(=O)c3cccc(C(F)(F)F)c3)cc2)cc1	inconclusive: 23.1 µM [rising, single point]	
COc1ccc(OC)c(N/C=C2/CCCCC2=O)c1	inconclusive: 29.1 µM [cytotoxic, single point]	
O=C(CN(Cc1ccco1)C(=O)c1ccccc1)Nc1ccc(Cl)c(Cl)c1	inconclusive: 10.3 µM [cytotoxic, partial curve, poor fit]	
CN1CCN(C(=O)c2ccc(Cl)c(S(=O)(=O)N3CCCCC3)c2)CC1	active: 14.6 µM	
O=c1[nH]c2cc([N+](=O)[O-])cc(Cl)c2c2ccccc12	active: 11.6 µM	
CS(=O)(=O)N1CCN=C1SCc1cccc(F)c1	inconclusive: 0.0291 µM [rising, full curve]	
CCOC(=O)C1(Cc2ccccc2)CCCN(Cc2cnn(CC)c2)C1 (configuration not stated)	inconclusive: 25.9 µM [cytotoxic, single point]	
COc1cc2c(C(=O)OCCN(C)C)c(CSc3ccccc3)n(C)c2cc1Br	inconclusive: 10.3 µM [cytotoxic, partial curve]	
CCOC(=O)c1c(C)[nH]c(C=O)c1Cc1cccc(Cl)c1	active: 14.6 µM	
CC1COCC(C)N1C1=C(Cl)C(=O)c2ccccc2C1=O (configuration not stated)	inconclusive: 23.1 µM [cytotoxic, single point]	
COc1ccc(C(=O)N2CCc3ccc(NC(=O)c4ccccn4)cc3C2)cc1F	inconclusive: 1.46 µM [cytotoxic, full curve, poor fit]	
COc1ccccc1C(NC(C)=O)c1cc(Cl)c2cccnc2c1O (configuration not stated)	inconclusive: 23.1 µM [cytotoxic, partial curve, poor fit]	
O=S(=O)(c1ccccc1)N1CCN(S(=O)(=O)c2ccccc2)c2ccccc21	active: 20.6 µM	
O=C1CC(C(=O)N(c2ccccc2)C(C(=O)NC2CCCC2)c2ccncc2)CS1 (configuration not stated)	inconclusive: 20.6 µM [rising, single point]	
CCS(=O)(=O)c1ncc(N(Cc2cccc(F)c2)Cc2ccco2)c(C(=O)Nc2ccccc2Cl)n1		inactive: 17.8%
Cc1nc2c(-c3ccccc3)c(C)[nH]n2c(=O)c1Cc1ccc(C(C)C)cc1	inconclusive: 13 µM [cytotoxic, partial curve, poor fit]	
O=C(c1ccc(F)cc1)N1CCN(c2cc(N3CCCCC3)c(F)cc2[N+](=O)[O-])CC1	active: 9.2 µM	
CC(NC(=O)c1ccc([N+](=O)[O-])o1)C12CC3CC(CC(C3)C1)C2 (configuration not stated)	inconclusive: 29.1 µM [cytotoxic, single point]	
COc1ccc(NC(=O)CN2C(=O)CC(c3ccco3)Sc3ccccc32)cc1OC (configuration not stated)	active: 18.4 µM	
Cc1noc(C)c1CSc1nc2ccccc2c(=O)n1-c1ccc(Cl)cc1	active: 23.1 µM	

By substructure, the entries above with a furan ring, fused or not.
Compound	Potency	activity change, negative = cytotoxicity
O=C(CN(Cc1ccco1)C(=O)c1ccccc1)Nc1ccc(Cl)c(Cl)c1	inconclusive: 10.3 µM [cytotoxic, partial curve, poor fit]	
CCS(=O)(=O)c1ncc(N(Cc2cccc(F)c2)Cc2ccco2)c(C(=O)Nc2ccccc2Cl)n1		inactive: 17.8%
CC(NC(=O)c1ccc([N+](=O)[O-])o1)C12CC3CC(CC(C3)C1)C2 (configuration not stated)	inconclusive: 29.1 µM [cytotoxic, single point]	
COc1ccc(NC(=O)CN2C(=O)CC(c3ccco3)Sc3ccccc32)cc1OC (configuration not stated)	active: 18.4 µM	

Continuation:

Compound	Potency	activity change, negative = cytotoxicity
COc1nccnc1NS(=O)(=O)c1ccc(NC(=S)NC(=O)c2ccccc2F)cc1		inactive: 19.5%
CC(Sc1ccccn1)C(=O)Nc1ccc2c(c1)OCCO2 (configuration not stated)	inconclusive: 18.4 µM [cytotoxic, partial curve, poor fit]	
O=C(Nc1ccc(Cl)cc1)C1CCN(S(=O)(=O)c2ccc(Br)s2)CC1	inconclusive: 20.6 µM [cytotoxic, single point]	
Cc1ccc(-c2nnc(SCC(=O)N/N=C/c3c(C)nn(-c4ccccc4)c3C)n2-c2ccc(C)cc2)cc1	active: 20.6 µM	
C#Cc1cccc(Nc2nc(NC(C)C)nc3ccsc23)c1	inconclusive: 29.1 µM [cytotoxic, single point]	
COc1ccc(N2CCN(c3nc4c(c(=O)[nH]c(=O)n4C)n3Cc3cccc(C)c3)CC2)cc1	inconclusive: 18.4 µM [cytotoxic, partial curve, poor fit]	
NCC1CC2c3ccccc3C1c1ccccc12 (configuration not stated)		inactive: 8.4%
CC(C)c1cc(N2CCN(C(=O)c3ccco3)CC2)n2c(nc3ccccc32)c1C#N		inactive: -14.3%
COc1nnc(-c2ccc(N3CCCCC3)c(NC(=O)C3CCCCC3)c2)c2ccccc12	inconclusive: 29.1 µM [cytotoxic, single point]	
C=CCOc1ccc(C2C3=C(CCCC3=O)N(CC(=O)O)C3=C2C(=O)CCC3)cc1OCC	inconclusive: 18.4 µM [rising, single point]	
CCOC(=O)c1c(C)[nH]c(N=Nc2ccc(C)cc2C)c1C	inconclusive: 20.6 µM [cytotoxic, single point]	
COc1ccc(-n2c(C)cc(C(=O)Cn3nnc4ccccc4c3=O)c2C)cc1		inactive: 0%
COc1cc2c(C(=O)N3CCN(c4ccccc4)CC3)c(C)oc2cc1Br	inconclusive: 16.4 µM [cytotoxic, single point]	
COc1cc(C(=O)NC2CC(C)(C)NC(C)(C)C2)cc(OC)c1OC	inconclusive: 29.1 µM [rising, single point]	
CC1(C(=O)Nc2cccc(NS(C)(=O)=O)c2)Cc2c(-c3ccc(C(N)=O)cc3)ccnc2O1 (configuration not stated)		inactive: 17.3%
CCCCSc1nc2sc3c(c2c(=O)n1-c1ccccc1)CCN(C)C3		inactive: 0%
O=C(Nc1cccc(C(F)(F)F)c1)N(Cc1ccc(Cl)cc1)CC(O)C(F)(F)F (configuration not stated)	inconclusive: 20.6 µM [cytotoxic, single point]	
CC(OC(=O)c1ccc(Cl)nc1)C(=O)NC1(C#N)CCCCC1 (configuration not stated)		inactive: -12.9%
Cc1cc2c(cc(C(=O)N3CCC(C(=O)NC4CCCC4)CC3)n2Cc2c(F)cccc2Cl)o1	inconclusive: 23.1 µM [cytotoxic, single point]	
COc1ccc(CNS(=O)(=O)CCNC(=O)c2cccc(OC)c2)cc1	active: 16.4 µM	
CC(NC1=CC(=O)c2cccnc2C1=O)C(O)c1ccccc1 (configuration not stated)	active: 14.6 µM	
